# Data as given in the supplement of paper PMC10338343.
# ± gives the standard deviation. The list shows a part of the results. Many entries were measured with a wide error.
# System: EfPiwi piRISC loaded with L1MC piRNA (26 nt)
# Assay: pre-steady-state target cleavage rate (min^-1); guide: L1MC piRNA 5'p-UAACUAAAUACUAUGCAAGCUGUAGG; MIWI and MILI are mouse PIWI proteins and EfPiwi is from a freshwater sponge; tags in brackets are library labels; higher = faster piRNA-guided slicing of the target
# Conditions: auxiliary factor: none (no Gtsf1)
# In short: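 Cleave-'n-Seq: 1 nM active affinity-purified piRISC with one synthetic guide and 0.1 nM transcribed, DNA-blocked target RNA library were mixed, with or without 500 nM GTSF1 partner protein, in HEPES–potassium acetate buffer at 33 °C for 0–8 or 0–960 min. Uncleaved targets were sequenced and normalised to depth and to weakly complementary targets, three trials were pooled, and k3 was capped at 0.0001 min^-1. The pre-steady-state cleavage rate was fitted […].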
row,Sequence,pre-steady-state target cleavage rate
1,UCCUGCUACUCCUUGCAUAGUAUUUACAAA,0.000345 ± 0.017
2,UCCUGGAUGUCGAACGUUAGUAUUUAUUUA,0.000154 ± 0.059
3,UCCUGGAUGUCGACGCAUAGUAUUUAGUUA,0.000482 ± 0.018
4,UCCUCCUACAGCUUGCAUAGUAUAAACAAA,0.000537 ± 0.014
5,UCCUGGAUGUCGAAGCAUAGUAUUAAGUAA,0.000571 ± 0.013
6,UCCUGGAUGUCGAACCAUUGUAUUUAGUUA,< 0.0001
